Source: patent publication US20220305105A1
No constants are given. Whether binding was seen depends on the method and setting. Some results given as binding are weak or reduced against the parent protein; the word gives no strength.

Chains of the proteins cited; added tags and fusions are not shown. Residues count along the entry.
UniProt P35916, residues 25-775: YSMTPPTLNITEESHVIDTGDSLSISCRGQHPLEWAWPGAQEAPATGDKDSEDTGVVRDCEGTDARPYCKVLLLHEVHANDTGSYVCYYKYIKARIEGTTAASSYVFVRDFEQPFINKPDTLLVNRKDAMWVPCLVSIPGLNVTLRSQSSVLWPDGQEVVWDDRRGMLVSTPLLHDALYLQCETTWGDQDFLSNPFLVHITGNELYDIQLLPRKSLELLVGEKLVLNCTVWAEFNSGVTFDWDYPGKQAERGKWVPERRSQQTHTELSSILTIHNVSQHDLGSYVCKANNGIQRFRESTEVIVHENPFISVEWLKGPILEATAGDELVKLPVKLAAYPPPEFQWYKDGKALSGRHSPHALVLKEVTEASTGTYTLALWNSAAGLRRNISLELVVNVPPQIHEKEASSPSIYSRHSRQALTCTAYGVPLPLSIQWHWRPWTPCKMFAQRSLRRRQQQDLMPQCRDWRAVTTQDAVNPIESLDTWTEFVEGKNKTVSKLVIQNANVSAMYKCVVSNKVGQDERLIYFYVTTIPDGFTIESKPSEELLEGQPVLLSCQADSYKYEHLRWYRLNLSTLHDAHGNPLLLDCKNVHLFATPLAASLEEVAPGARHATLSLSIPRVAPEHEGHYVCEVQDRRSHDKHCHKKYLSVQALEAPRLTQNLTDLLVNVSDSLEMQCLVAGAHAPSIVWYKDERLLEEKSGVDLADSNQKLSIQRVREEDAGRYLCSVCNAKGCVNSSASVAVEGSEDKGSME
UniProt P35968, residues 20-764: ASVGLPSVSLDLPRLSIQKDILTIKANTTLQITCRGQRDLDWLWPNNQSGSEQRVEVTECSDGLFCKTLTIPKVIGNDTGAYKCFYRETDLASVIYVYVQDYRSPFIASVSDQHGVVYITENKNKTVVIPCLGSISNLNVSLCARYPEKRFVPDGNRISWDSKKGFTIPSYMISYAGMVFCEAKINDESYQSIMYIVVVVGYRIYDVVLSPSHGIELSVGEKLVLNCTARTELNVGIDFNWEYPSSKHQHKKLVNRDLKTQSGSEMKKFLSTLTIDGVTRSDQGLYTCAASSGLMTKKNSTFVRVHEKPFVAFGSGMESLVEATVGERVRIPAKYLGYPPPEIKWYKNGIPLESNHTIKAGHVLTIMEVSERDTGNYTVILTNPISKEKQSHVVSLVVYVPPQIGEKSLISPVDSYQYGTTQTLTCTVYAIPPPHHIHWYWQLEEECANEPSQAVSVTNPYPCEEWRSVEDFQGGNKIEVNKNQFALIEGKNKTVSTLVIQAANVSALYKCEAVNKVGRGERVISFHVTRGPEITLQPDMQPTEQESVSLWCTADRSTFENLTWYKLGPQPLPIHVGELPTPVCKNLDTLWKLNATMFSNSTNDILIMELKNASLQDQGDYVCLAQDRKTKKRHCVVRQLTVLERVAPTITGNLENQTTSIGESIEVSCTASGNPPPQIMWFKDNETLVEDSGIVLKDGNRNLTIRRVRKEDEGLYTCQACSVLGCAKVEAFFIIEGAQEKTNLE
UniProt O43915, residues 89-205: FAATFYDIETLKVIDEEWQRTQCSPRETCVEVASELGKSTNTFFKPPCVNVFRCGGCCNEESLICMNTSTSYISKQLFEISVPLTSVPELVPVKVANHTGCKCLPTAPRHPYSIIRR

How the values were obtained:
[1] = target: recombinant VEGFR-3 (extracellular domain of the VEGF-receptor fused to human IgG Fc region) (human) (UniProt P35916); assay: ELISA, VEGFR-Fc coated on the plate, bound VEGF detected with protein-specific antibodies
[2] = target: recombinant VEGFR-2 (extracellular domain of the VEGF-receptor fused to human IgG Fc region) (human) (UniProt P35968); assay: as above

## Recombinant human VEGF-D (from UniProt O43915 89-205) (ligand)
[1]
  binding: binds
[2]
  binding: binds
